Laboratory results: the supplement of paper PMC11451515

Legend:
NOMO1 = assay: AUC of viability dose-response curve (% viability x log10 dose units); higher = less sensitive; details: 48 h
Outline: (§1)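 Leukemia cells adapted to each medium (500 or 1000 cells/well, 1536-well plates) were exposed to library compounds in DMSO for 48 h at 37°C at 11 threefold doses, 47 μM to 0.79 nM. Luminescence by CellTiter-Glo One was normalised per plate to DMSO and cell-free wells, then fitted with a four-parameter log-logistic curve on log10 dose. Curves above full viability were scaled and quality-control failures removed before area under the curve was integrated by trapezoidal rule.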

P12-Ichikawa = assay: as above; details: 48 h
Outline: as §1

[1] = RPMI 5 mM glucose + 10% dialyzed FBS

For `Cc1cc(N[S+](=O)([O-])c2ccc(N)cc2)no1`, the “AUC of viability dose-response curve” value (NOMO1; HPLM + 10% dialyzed FBS) was 466, the “AUC of viability dose-response curve” value (NOMO1; RPMI 5 mM glucose + 10% FBS) was 477 and the “AUC of viability dose-response curve” value (NOMO1; [1]) was 471. For the same compound, the “AUC of viability dose-response curve” value (P12-Ichikawa; HPLM + 10% dialyzed FBS) was 474, the “AUC of viability dose-response curve” value (P12-Ichikawa; RPMI 5 mM glucose + 10% FBS) was 474 and the “AUC of viability dose-response curve” value (P12-Ichikawa; [1]) was 474.
